No constants are given. Whether binding was seen depends on the method and setting. In cells and extracts the contact can be indirect. Some results given as binding are weak or reduced against the parent protein; the word gives no strength. Tags and fused reporters may be left off the sequences shown.

These results are taken from publication PMC2679210, “Dpr Acts as a Molecular Switch, Inhibiting Wnt Signaling when Unphosphorylated, but Promoting Wnt Signaling when Phosphorylated by Casein Kinase Iδ/ε” (PLoS ONE, 2009).

The experiment concerns the target T1, Xenopus Dapper1a (XDpr1a), Myc-tagged (Xenopus) (UniProt Q8QG92).
T1 sequence: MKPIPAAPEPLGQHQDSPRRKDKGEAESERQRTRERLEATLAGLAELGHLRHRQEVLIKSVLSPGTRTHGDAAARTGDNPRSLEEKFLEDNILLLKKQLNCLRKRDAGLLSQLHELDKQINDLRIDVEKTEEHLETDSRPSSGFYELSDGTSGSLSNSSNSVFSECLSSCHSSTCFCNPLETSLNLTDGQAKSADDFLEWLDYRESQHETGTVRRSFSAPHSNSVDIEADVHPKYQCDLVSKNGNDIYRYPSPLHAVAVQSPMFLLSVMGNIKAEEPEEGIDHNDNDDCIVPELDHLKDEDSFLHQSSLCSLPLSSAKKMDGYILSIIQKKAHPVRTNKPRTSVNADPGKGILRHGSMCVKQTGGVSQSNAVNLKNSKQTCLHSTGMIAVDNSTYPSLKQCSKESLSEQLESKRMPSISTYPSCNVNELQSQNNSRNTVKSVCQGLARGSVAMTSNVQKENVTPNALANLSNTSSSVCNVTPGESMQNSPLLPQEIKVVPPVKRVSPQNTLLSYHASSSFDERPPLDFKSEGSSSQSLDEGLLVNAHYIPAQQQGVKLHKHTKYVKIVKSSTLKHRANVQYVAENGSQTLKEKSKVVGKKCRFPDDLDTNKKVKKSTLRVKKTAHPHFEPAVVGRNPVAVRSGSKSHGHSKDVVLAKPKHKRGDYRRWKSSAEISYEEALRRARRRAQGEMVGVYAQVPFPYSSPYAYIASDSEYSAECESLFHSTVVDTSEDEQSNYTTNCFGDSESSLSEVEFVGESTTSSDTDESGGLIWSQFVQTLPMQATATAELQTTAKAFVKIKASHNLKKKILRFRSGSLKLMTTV
The experiment is described as follows: co-IP; in vitro coimmunoprecipitation: [35S]methionine-labeled Myc:XDpr1a immunoprecipitated with anti-Myc antibodies and protein A agarose, 2 hours at room temperature, from a reaction containing HA-tagged XDsh in the absence or presence of CKIδ; washed three times with 50 mM Tris-HCl pH 7.4, 137 mM NaCl; SDS-PAGE, autoradiography, PhosphorImager quantitation (n = 4 trials).

B1: Xenopus Dsh (XDsh), HA-tagged (protein, UniProt P51142 1-736)
chain: MAETKVIYHLDEEETPYLVKVPVPATDIRLRDFKAALGRGHAKYFFKAMDQDFGVVKEEISDDNAKLPCFNDRVVSWLASSEGSQPDSAPPAPATEVRPEPPPPVPPPIPPPPAERTSGIGDSRPPSFHPNVSGSTEQLDQDNESVISMRRDRVRRRESSEQAGVGRGVNGRTERHLSGYESSSTLLTSEIETSICDSEEDDTMSRFSSSTEQSSASRLLKRHRRRRKQRPPRLERTSSFSSVTDSTMSLNIITVTLNMEKYNFLGISIVGQSNERGDGGIYIGSIMKGGAVAADGRIEPGDMLLQVNDINFENMSNDDAVRVLRDIVHKPGPIVLTVAKCWDPSPQGYFTLPRNEPIHPIDPAAWVSHSAALSGSFPVYPGSASMSSMTSSTSVTETELSHALPPVSLFSLSVHTDLASVVKVMASPESGLEVRDRMWLKITIPNAFLGSDVVDWLYHHVEGFQDRREARKFASNLLKAGFIRHTVNKITFSEQCYYIFGDLTGCENYMTNLSLNDNDGSSGASDQDTLAPLPLPGASPWPLLPTFSYQYQAPHPYSTQPPAYHELSSYSYGMGSAGSQHSEGSRSSGSNRSDGGRGMQKDDRSGVAGVGGGDSKSGSGSESEYSTRSSIRRVGGGEAGPPSERSTSSRLPPHHPPSVHSYAAPGVPLSYNPMMLMMMPPPPLPPPGVCPPNSSVPPGAPPLVRDLASVPPELTATRQSFHMAMGNPSEFFVDVM
Take B1: the binding entry was “binds”.
